Measured values taken from PubChem BioAssay AID256 (DTP/NCI, 2004).
The list is a part of this screen's results and no random one: it gathers tests that were run many times, whatever their T/C, doses with no T/C, and many T/C values between a quarter and a half above the control. Further doses and runs are listed elsewhere. T/C is the treated group as % of the vehicle group. Some doses have a count of surviving animals in place of a T/C: the source holds a T/C of zero for them, seemingly a mark for toxic or unscored doses. Some doses without a T/C left all or most animals alive at the check, yet need not have been tolerated: the source hardly ever lists a survival T/C far under the control, and the zero likely stands for such cases as well. Counts of survivors are from the toxicity check (mostly the fifth day) where no day follows; animals may have died later. Schedules are NCI's codes, read here as Q, the interval in days (D) or hours (H), X, the number of doses. Some entries were tested several times; the results are listed from low to high. For survival time, the PubChem record calls one and a half times the control and up active, and a quarter to a half above the control has no call in these data; cut-offs in other NCI protocols can differ. Some T/C values carry the count of animals alive at the toxicity check (mostly the fifth day); where none is given, no animal had died by that day.

Tested on: CD2F1 mice, L1210 leukemia ip, survival T/C
Test: NCI In Vivo Anticancer Drug Screen. Data for tumor model L1210 Leukemia (intraperitoneal) in CD2F1 (CDF1) mice
Settings: higher T/C = longer survival
Outline: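 Mice carrying a transplanted tumor received test compound or vehicle alone. The value is the measurement in the treated group divided by that in the vehicle-treated control group.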

[1] = T/C endpoint: mean survival time, dose: 100.0 mg/kg/injection, schedule: Q01DX001 (ip), vehicle: saline with Tween-80
[2] = T/C endpoint: mean survival time, dose: 400.0 mg/kg/injection, schedule: Q04DX003 (ip), vehicle: saline with Tween-80
[3] = T/C endpoint: mean survival time, dose: 300.0 mg/kg/injection, schedule: Q01DX001 (ip), vehicle: other
[4] = T/C endpoint: mean survival time, dose: 200.0 mg/kg/injection, schedule: Q01DX001 (ip), vehicle: saline with Tween-80
[5] = T/C endpoint: mean survival time, dose: 200.0 mg/kg/injection, schedule: Q01DX009 (ip), vehicle: saline
[6] = T/C endpoint: mean survival time, dose: 200.0 mg/kg/injection, schedule: Q04DX003 (ip), vehicle: saline with Tween-80
[7] = T/C endpoint: mean survival time, dose: 400.0 mg/kg/injection, schedule: Q01DX009 (ip), vehicle: saline with Tween-80
[8] = T/C endpoint: mean survival time, dose: 400.0 mg/kg/injection, schedule: Q01DX001 (ip), vehicle: saline with Tween-80
[9] = T/C endpoint: median survival time, dose: 160.0 mg/kg/injection, schedule: Q01DX009 (ip), vehicle: Klucel (hydroxypropylcellulose) (HPC)
[10] = T/C endpoint: median survival time, dose: 100.0 mg/kg/injection, schedule: Q01DX009 (ip), vehicle: Klucel (hydroxypropylcellulose) (HPC)
[11] = T/C endpoint: median survival time, dose: 200.0 mg/kg/injection, schedule: Q01DX009 (ip), vehicle: Klucel (hydroxypropylcellulose) (HPC)
[12] = T/C endpoint: median survival time, dose: 400.0 mg/kg/injection, schedule: Q01DX009 (ip), vehicle: Klucel (hydroxypropylcellulose) (HPC)

CC(=O)NC(=O)CC(O)(c1ccccc1)c1ccccc1 was tested, and the survivor count [1] was 6 of 6.
With COc1cc(OC)c2c(c1Cl)OC(C(C)=O)C2=O (centres undefined) the survivor count [2] was 6 of 6.
CCOC(=O)c1ccc(N)cc1 was tested, and the survivor count [3] was 2 of 6 and the survivor count (T/C endpoint: mean survival time, dose: 300.0 mg/kg/injection, schedule: Q04DX003 (ip), vehicle: saline with Tween-80) was 3 of 6.
For CCCCCCCCCCCCCC1CCCC(C)N1 (centres undefined), the survivor count (T/C endpoint: mean survival time, dose: 200.0 mg/kg/injection, schedule: Q04DX002 (ip), vehicle: saline with Tween-80) was 3 of 3 and the survivor count (T/C endpoint: mean survival time, dose: 400.0 mg/kg/injection, schedule: Q04DX002 (ip), vehicle: saline with Tween-80) was 0 of 3 and 1 of 3.
With O=C1C(=O)N(CNC(c2ccccc2)c2ccccc2)c2ccccc21 the survivor count [4] was 5 of 6.
O=c1[nH]cc(S(=O)(=O)Nc2ccccc2)c(=O)[nH]1 was tested, and the survivor count [4] was 2 of 6.
C=C1CC2(OC1=O)C(=O)N(C)c1ccc(I)cc12 (centres undefined) was tested, and the survivor count (T/C endpoint: mean survival time, dose: 50.0 mg/kg/injection, schedule: Q01DX009 (ip), vehicle: saline) was 3 of 6, the survivor count (T/C endpoint: mean survival time, dose: 100.0 mg/kg/injection, schedule: Q01DX009 (ip), vehicle: saline) was 1 of 6 and 2 of 6 and the survivor count [5] was 0 of 6 and 1 of 6.
With CCCCCCCCCCCCNC(=O)C[N+](C)(C)Cc1ccc2c(c1)CCCC2 the survivor count (T/C endpoint: mean survival time, dose: 20.0 mg/kg/injection, schedule: Q04DX003 (ip), vehicle: saline with Tween-80) was 5 of 6, the survivor count (T/C endpoint: mean survival time, dose: 100.0 mg/kg/injection, schedule: Q04DX003 (ip), vehicle: saline with Tween-80) was 0 of 6 and the survivor count [6] was 0 of 6. For the same compound, the survivor count [2] was 0 of 6.
O=C(N=C1OC2C(OC(=O)c3ccccc3)C(COC(=O)c3ccccc3)OC2N1C(=O)c1ccccc1)c1ccccc1 (centres undefined) was tested, and the survivor count (T/C endpoint: mean survival time, dose: 400.0 mg/kg/injection, schedule: Q01DX009 (ip), vehicle: saline) was 3 of 6.
COc1ccc(N=N/N=c2\sc3cc(OC)ccc3n2C)cc1 was tested, and the survivor count (T/C endpoint: median survival time, dose: 340.0 mg/kg/injection, schedule: Q01DX005 (ip), vehicle: saline with Tween-80) was 4 of 6 and the survivor count (T/C endpoint: median survival time, dose: 680.0 mg/kg/injection, schedule: Q01DX005 (ip), vehicle: saline with Tween-80) was 6 of 6.
In the case of O=[N+]([O-])c1ccc(Sc2ccc(Cl)cc2)cc1, the survivor count [7] is reported as 6 of 6.
In the case of O=C(Sc1cn(C2CC(O)C(CO)O2)c(=O)[nH]c1=O)c1ccc(N(CCCl)CCCl)cc1 (centres undefined), the T/C (T/C endpoint: mean survival time, dose: 100.0 mg/kg/injection, schedule: Q01DX005 (ip), vehicle: water) is reported as 135 % of control and the T/C (T/C endpoint: mean survival time, dose: 150.0 mg/kg/injection, schedule: Q01DX005 (ip), vehicle: water) is reported as 141 % of control [5 of 6 alive].
For CC(CCCC#N)[N+](=O)[O-] (centres undefined), the survivor count (T/C endpoint: mean survival time, dose: 80.0 mg/kg/injection, schedule: Q01DX001 (ip), vehicle: saline) was 2 of 4, the survivor count (T/C endpoint: mean survival time, dose: 200.0 mg/kg/injection, schedule: Q01DX001 (ip), vehicle: saline) was 0 of 4 and the survivor count (T/C endpoint: mean survival time, dose: 400.0 mg/kg/injection, schedule: Q01DX001 (ip), vehicle: saline) was 0 of 4.
For CCCC(C#N)OC(=O)c1ccccc1 (centres undefined), the survivor count (T/C endpoint: mean survival time, dose: 100.0 mg/kg/injection, schedule: Q01DX009 (ip), vehicle: saline with Tween-80) was 3 of 6, the survivor count [6] was 0 of 6 and the survivor count [2] was 0 of 6.
For CN(C)P1(=O)NCC(C(C)(C)C)CO1 (centres undefined), the survivor count (T/C endpoint: mean survival time, dose: 500.0 mg/kg/injection, schedule: Q01DX001 (ip), vehicle: water) was 0 of 6.
With Cc1cc(N=Nc2ccc(S(=O)(=O)[O-])cc2)cc(C(=O)[O-])c1[OH2+].Cc1cc(N=Nc2ccc(S(=O)(=O)[O-])cc2)cc(C(=O)[O-])c1[OH2+].NC1CCCCC1N.[Na+].[Pt+4] the T/C (T/C endpoint: median survival time, dose: 3.12 mg/kg/injection, schedule: Q04DX003 (ip), vehicle: saline with Tween-80) was 149 % of control, the T/C (T/C endpoint: median survival time, dose: 3.12 mg/kg/injection, schedule: Q04DX003 (ip), vehicle: saline) was 140 % of control and the T/C (T/C endpoint: median survival time, dose: 50.0 mg/kg/injection, schedule: Q04DX003 (ip), vehicle: saline) was 148 % of control. The survivor count (T/C endpoint: median survival time, dose: 100.0 mg/kg/injection, schedule: Q04DX003 (ip), vehicle: saline with Tween-80) was 6 of 6 and the survivor count (T/C endpoint: median survival time, dose: 200.0 mg/kg/injection, schedule: Q04DX003 (ip), vehicle: saline with Tween-80) was 1 of 6.
For CCOC(=O)CCC(NC(=O)c1ccc(NCc2cnc3nc(N)nc(N)c3c2)cc1)C(=O)OCC (centres undefined), the T/C (T/C endpoint: median survival time, dose: 0.25 mg/kg/injection, schedule: Q01DX005 (ip), vehicle: saline with Tween-80) was 136 % of control and the T/C (T/C endpoint: median survival time, dose: 0.5 mg/kg/injection, schedule: Q01DX005 (ip), vehicle: saline with Tween-80) was 137 % of control.
For CC1=CCS(=O)(=O)C1, the survivor count [5] was 0 of 6.
CC[N+]1(C2CCC3CCC2C3O)CCOCC1 (centres undefined) was tested, and the survivor count [4] was 3 of 6 and the survivor count [8] was 1 of 6.
For CCCCNC(=O)Nc1cccc2c(O)cccc12, the survivor count (T/C endpoint: mean survival time, dose: 100.0 mg/kg/injection, schedule: Q01DX009 (ip), vehicle: DMSO) was 0 of 3 and the survivor count (T/C endpoint: mean survival time, dose: 200.0 mg/kg/injection, schedule: Q01DX009 (ip), vehicle: DMSO) was 2 of 3.
With O=C(C[n+]1cc2ccccc2c2ccccc21)c1ccccc1 the survivor count (T/C endpoint: mean survival time, dose: 400.0 mg/kg/injection, schedule: Q04DX003 (ip), vehicle: saline) was 1 of 6.
In the case of C=CC(C)(C)n1cc(C2=C(O)C(=O)C(c3cn(C(C)(C)C=C)c4ccccc34)=C(O)C2=O)c2ccccc21, the T/C (T/C endpoint: mean survival time, dose: 40.0 mg/kg/injection, schedule: Q01DX009 (ip), vehicle: carboxymethylcellulose (CMC)) is reported as 126 % of control, the T/C (T/C endpoint: median survival time, dose: 80.0 mg/kg/injection, schedule: Q01DX009 (ip), vehicle: Klucel (hydroxypropylcellulose) (HPC)) is reported as 128 and 142 % of control and the T/C [9] is reported as 125 % of control. For the same compound, the survivor count [9] was 4 of 6.
In the case of CCC(=O)[O][Bi]([c]1ccccc1)[c]1ccccc1, the survivor count (T/C endpoint: median survival time, dose: 50.0 mg/kg/injection, schedule: Q01DX009 (ip), vehicle: Klucel (hydroxypropylcellulose) (HPC)) is reported as 0 of 6, the survivor count [10] is reported as 0 of 6 and the survivor count [11] is reported as 0 of 6. The survivor count [12] was 0 of 6.
For CCN(CC)C(=O)c1cc[n+](Cc2ccc(Cl)c(Cl)c2)cc1, the survivor count (T/C endpoint: mean survival time, dose: 200.0 mg/kg/injection, schedule: Q01DX009 (ip), vehicle: saline with Tween-80) was 0 of 6 and the survivor count [2] was 0 of 6.
In the case of FC(F)(F)/C([S-])=C(/[S-])C(F)(F)F.[Fe].[c-]1[c-][c-][cH-][c-]1, the survivor count [3] is reported as 2 of 6.
With Nc1nc(-c2cccc([N+](=O)[O-])c2)c(N=Nc2ccccc2)s1 the survivor count [8] was 3 of 6.
In the case of C=CCOc1cc2c(cc1C(C)c1ccc(OC)cc1)OCO2 (centres undefined), the T/C [10] is reported as 127 % of control, the T/C [11] is reported as 136, 139, 143 % of control and the T/C (T/C endpoint: median survival time, dose: 200.0 mg/kg/injection, schedule: Q01DX009 (ip), vehicle: saline with Tween-80) is reported as 125 % of control. For the same compound, the T/C [12] was 127 % of control, the survivor count [12] was 4 of 6 and 5 of 6 and the survivor count (T/C endpoint: median survival time, dose: 800.0 mg/kg/injection, schedule: Q01DX009 (ip), vehicle: Klucel (hydroxypropylcellulose) (HPC)) was 0 of 6.
In the case of C#CC(C)(C)OCC(CCl)OC(N)=O (centres undefined), the survivor count [7] is reported as 0 of 6.
With Nc1nc(=O)n(CCCOc2ccc([N+](=O)[O-])c(Cl)c2)cc1-c1ccc(Cl)c(Cl)c1 the survivor count [1] was 6 of 6 and the survivor count [8] was 5 of 6.
In the case of c1ccc(NC2CCN(C3(c4ccccc4)CCCCC3)CC2)cc1, the survivor count (T/C endpoint: mean survival time, dose: 100.0 mg/kg/injection, schedule: Q04DX002 (ip), vehicle: saline) is reported as 1 of 3.
O=C(OCc1ccccc1)c1cc([N+](=O)[O-])c(Cl)c([N+](=O)[O-])c1 was tested, and the survivor count [7] was 3 of 6.
